# Data: publication PMC5291411, “Cytotoxic conjugates of betulinic acid and substituted triazoles prepared by Huisgen Cycloaddition from 30-azidoderivatives” (PLoS ONE, 2017)
# System: CCRF-CEM
# Assay: Cytotoxic MTS assay, CCRF-CEM
# Assay type: cell-based, human
# Conditions: IC50 of CCRF-CEM line vs average of both fibroblasts (BJ, MRC-5)
# Excerpt: Cytotoxic activity of all synthesized compounds was investigated in vitro against eight human cancer cell lines and two non-tumor fibroblasts using the standard MTS test (Table 1). The cancer cell lines were derived from T-lymphoblastic leukemia CCRF-CEM, leukemia K562 and their multiresistant counterparts expressing P-glycoprotein, MRP1 and LRP proteins (CEM-DNR, K562-TAX), solid tumors including lung (A549) and colon (HCT116, HCT116p53-/-) carcinomas, osteosarcoma cell line (U2OS), and for comparison, tests were performed on two human non-cancer fibroblast cell lines (BJ, MRC-5).
# Biological assays were performed in concordance with our previous publications [[29], [58]; [60]; [61]]. All cells (if not indicated otherwise) were purchased from the American Tissue Culture Collection (ATCC). The CCRF-CEM line is derived from T lymphoblastic leukemia, evincing high chemosenzitivity, K562 represent cells from an acute myeloid leukemia patient sample with bcr-abl translocation, U2OS line is derived from osteosarcoma, HCT116 is colorectal tumor cell line and its p53 gene knock-down counterpart (HCT116p53-/-, Horizon Discovery Ltd, UK) is a model of human cancers with p53 mutation frequently associated with poor prognosis, A549 line is lung adenocarcinoma. The daunorubicin resistant subline of CCRF-CEM cells (CEM-DNR bulk) and paclitaxel resistant subline K562-TAX were selected in our laboratory by the cultivation of maternal cell lines in increasing concentrations of daunorubicine or paclitaxel, respectively. The CEM-DNR bulk cells overexpress MRP-1 and P-glycoprotein protein, while K562-TAX cells overexpress P-glycoprotein only. Both proteins belong to the family of ABC transporters and are involved in the primary and/or acquired multidrug resistance phenomenon. MRC-5 and BJ cell lines were used as a non-tumor control and represent human fibroblasts. The cells were maintained in nunc/corning 80 cm^2 plastic tissue culture flasks and cultured in cell culture medium according to ATCC or Horizon recommendations (DMEM/RPMI 1640 with 5 g/L glucose, 2 mM glutamine, 100 U/mL penicillin, […] streptomycin, 10% fetal calf serum, and NaHCO3).
# MTS assay was performed at Institute of Molecular and Translational Medicine by robotic platform (HighResBiosolutions). Cell suspensions were prepared and diluted according to the particular cell type and the expected target cell density (25000–35000 cells/mL based on cell growth characteristics). Cells were added by automatic pipetor (30 μL) into 384 well microtiter plates. All tested compounds were dissolved in 100% DMSO and four-fold dilutions of the intended test concentration were added in 0.15 μL aliquots at time zero to the microtiter plate wells by the echoacustic non-contact liquid handler Echo550 (Labcyte). The experiments were performed in technical duplicates and three biological replicates at least. The cells were incubated with the tested compounds for 72 h at 37°C, in a 5% CO2 atmosphere at 100% humidity. At the end of the incubation period, the cells were assayed by using the MTS test. Aliquots (5 μL) of the MTS stock solution were pipetted into each well and incubated for additional 1–4 h. After this incubation period, the optical density (OD) was measured at 490 nm with an Envision reader (Perkin Elmer). Tumor cell survival (TCS) was calculated by using the following equation: TCS = (ODdrug-exposed well/mean ODcontrol wells) × 100%. The IC50 value, the drug concentration that is lethal to 50% of the tumor cells, was calculated from the appropriate dose-response curves in Dotmatics software.
row,SMILES,TI (therapeutic index)
1,C=C(Cn1cc(-c2cccnc2)nn1)[C@@H]1CC[C@]2(C(=O)O)CC[C@]3(C)C(CCC4[C@@]5(C)CC[C@H](OC(C)=O)C(C)(C)C5CC[C@]43C)C12 (stereo partly shown) [Compound 9d],1.9
2,C=C(Cn1cc(-c2ccc(N(C)C)cc2)nn1)[C@@H]1CC[C@]2(C(=O)O)CC[C@]3(C)C(CCC4[C@@]5(C)CC[C@H](OC(C)=O)C(C)(C)C5CC[C@]43C)C12 (stereo partly shown) [Compound 9e],1.6
3,C=C(Cn1cc(-c2ccccc2)nn1)[C@@H]1CC[C@]2(C(=O)O)CC[C@]3(C)C(CCC4[C@@]5(C)CC[C@H](O)C(C)(C)C5CC[C@]43C)C12 (stereo partly shown) [Compound 11a],>3.0
4,C=C(Cn1cc(-c2ccccc2C=O)nn1)[C@@H]1CC[C@]2(C(=O)O)CC[C@]3(C)C(CCC4[C@@]5(C)CC[C@H](OC(C)=O)C(C)(C)C5CC[C@]43C)C12 (stereo partly shown) [Compound 9b],9.1
5,C=C(Cn1cc(CN)nn1)[C@@H]1CC[C@]2(C(=O)O)CC[C@]3(C)C(CCC4[C@@]5(C)CC[C@H](OC(C)=O)C(C)(C)C5CC[C@]43C)C12 (stereo partly shown) [Compound 9h],>2.5
6,C=C(Cn1cc(-c2ccccc2)nn1)[C@@H]1CC[C@]2(C(=O)O)CC[C@]3(C)C(CCC4[C@@]5(C)CC[C@H](OC(C)=O)C(C)(C)C5CC[C@]43C)C12 (stereo partly shown) [Compound 9a],>3.1
7,"C=C(CN=[N+]=[N-])[C@@H]1CC[C@]2(C(=O)O)CC[C@]3(C)C(CCC4[C@@]5(C)CC[C@H](O)C(C)(C)C5CC[C@]43C)C12 (stereo partly shown) [Compound 8, 30-azidobetulinic acid]",1.2
8,C=C(Cn1cc(-c2ccccn2)nn1)[C@@H]1CC[C@]2(C(=O)O)CC[C@]3(C)C(CCC4[C@@]5(C)CC[C@H](OC(C)=O)C(C)(C)C5CC[C@]43C)C12 (stereo partly shown) [Compound 9c],3.2
9,"C=C(CBr)[C@@H]1CC[C@]2(C(=O)O)CC[C@]3(C)C(CCC4[C@@]5(C)CC[C@H](OC(C)=O)C(C)(C)C5CC[C@]43C)C12 (stereo partly drawn) [Compound 4, 3β-O-Acetyl-30-bromobetulinic acid]",4.9
10,C=C(Cn1cc(-c2ccccc2C=O)nn1)[C@@H]1CC[C@]2(C(=O)O)CC[C@]3(C)C(CCC4[C@@]5(C)CC[C@H](O)C(C)(C)C5CC[C@]43C)C12 (stereo partly shown) [Compound 11b],>5.9
11,C=C(Cn1cc(-c2ccccn2)nn1)[C@@H]1CC[C@]2(C(=O)O)CC[C@]3(C)C(CCC4[C@@]5(C)CC[C@H](O)C(C)(C)C5CC[C@]43C)C12 (stereo partly shown) [Compound 11c],>3.5
12,C=C(Cn1cc(C2CCCC2)nn1)[C@@H]1CC[C@]2(C(=O)O)CC[C@]3(C)C(CCC4[C@@]5(C)CC[C@H](O)C(C)(C)C5CC[C@]43C)C12 (stereo partly shown) [Compound 11g],>3.0
13,"C=C(C)[C@@H]1CC[C@]2(C(=O)O)CC[C@]3(C)[C@H](CC[C@@H]4[C@@]5(C)CC[C@H](O)C(C)(C)[C@@H]5CC[C@]43C)[C@@H]12 [Compound 1, betulinic acid]",0.7
14,C=C(Cn1cc(-c2ccc(C(C)(C)C)cc2)nn1)[C@@H]1CC[C@]2(C(=O)O)CC[C@]3(C)C(CCC4[C@@]5(C)CC[C@H](OC(C)=O)C(C)(C)C5CC[C@]43C)C12 (stereo partly shown) [Compound 9f],>1.4
15,C=C(Cn1cc(C2CCCC2)nn1)[C@@H]1CC[C@]2(C(=O)O)CC[C@]3(C)C(CCC4[C@@]5(C)CC[C@H](OC(C)=O)C(C)(C)C5CC[C@]43C)C12 (stereo partly shown) [Compound 9g],>1.9
16,"C=C(CN=[N+]=[N-])[C@@H]1CC[C@]2(C(=O)O)CC[C@]3(C)C(CCC4[C@@]5(C)CC[C@H](OC(C)=O)C(C)(C)C5CC[C@]43C)C12 (stereo partly drawn) [Compound 6, 3β-O-Acetyl-30-azidobetulinic acid]",3.2
